# Library screen at single concentrations

The filed quantity is “Percent Effect” (%). The record does not define 0% and 100%; most values in the screen are far below 50% and negative numbers occur (in some assays of this library far below -100). Compounds were drawn at random from those tested, without regard to their results. Two or more numbers in one place are separate tests of the same structure; such repeats can differ widely. A dash means the value is not listed here; it may have been measured.

T. brucei: 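Whole-parasite assay of Trypanosoma brucei over 72 hours; the read-out is not stated. Tested at 30 µM. Higher reads as stronger inhibition (inferred: compounds with an IC50 in retests scored well above the rest). Values scatter widely below zero; nearly all retest evidence comes from the higher of the two concentrations used. About 64,000 compounds were tested under these conditions; 1.5% (about 940) showed 50% or more at least once.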
Leishmania in macrophages: 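Cell assay of Leishmania donovani living inside macrophages; the read-out is not stated. Tested at 30 µM. Higher reads as stronger inhibition (inferred: compounds with an IC50 in retests scored well above the rest). Size under these conditions: about 69,000 compounds, about 1,000 of them at 50% or above in at least one test.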
Toxoplasma: 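Assay of Toxoplasma gondii numbers, read through their beta-galactosidase reporter with a colour substrate. Concentration: 10 µM. The record gives no direction; the compounds picked for IC50 retests had high values, so higher reads as fewer parasites. Of about 67,000 compounds tested this way, about 260 (0.38%) reached 50% or more in at least one test.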

SMILES | T. brucei | Leishmania in macrophages | Toxoplasma
O=C(CS(=O)(=O)c1ccccn1)NC1CCCc2ccccc21 (stereo unspecified) | 6.458 | 9.772 | -10.51
O=C(NC1CCN(c2ncccn2)CC1)c1sccc1C1CC1 | 4.645 | -10.58 | -9.545
CC(C)COCC(NC(=O)c1cc[nH]n1)c1ccco1 (stereo unspecified) | 19.38 | 12.36 | 4.997
Cc1nc2ccccn2c1CN1C[C@@H](CN(C)CCO)[C@@H](CO)C1 | 24.17 | 17.46 | 3.837
N#Cc1cn(C2CC2)c(=O)n(Cc2noc(-c3ccsc3)n2)c1=O | -51.36 | 10.47 | -1.431
O=C1c2cnc(N3CCCC3)nc2CN1CCc1ccc(Cl)cc1 | 1.699 | 21.22 | -25.54
CN1C(=O)CO[C@H](c2ccc(NC(=O)c3cccnc3)cc2)[C@H]1CO | -8.566 | 18.47 | 6.732
COc1cccc(CC(=O)N2CC[C@@H](OC)[C@@H]2Cc2cccnc2)c1.O=C(O)C(F)(F)F | -1.883 | 13.19 | -1.357
Cc1ccc(-c2ncc(C(=O)NCCNC(=O)C3CC3)s2)c(C)c1 | 0.3495 | -13.01 | 25.7
CCOC(=O)N1CCN(C(=O)Cn2ccc3ncccc3c2=O)CC1 | -57.5 | 16.21 | 4.679
COC(=O)c1cccc(S(=O)(=O)NCc2cccnc2N(C)C)c1 | - | 44.32 | 0.4165
COc1ccc2c(c1)CCCN(C(C)C(=O)NC(N)=O)C2 (stereo unspecified) | -21.22 | 18.35 | 1.142
CCOC(=O)N1CCC(Oc2ccc(C(F)(F)F)cn2)CC1 | -9.726 | -27.1 | 5.039
CC(=O)N1CCC(C(=O)NC2CCc3nccn3C2)CC1 (stereo unspecified) | -29.04 | 2.642 | 7.692
Cc1n[nH]c2nc(-c3cc(Br)ccc3O)cc(C(=O)O)c12 | -23.01 | -16.61 | -29.06
O=C(NCC(F)(F)C(F)F)c1cccnc1 | 9.514 | 3.821 | -4.372
Cn1cc(N2CCCC(Nc3ccc4c(c3)NC(=O)CC4)C2=O)cn1 (stereo unspecified) | -45.44 | 2.94 | 10.74
NC(=O)CS(=O)(=O)Cc1csc(-c2ccccc2)n1 | 5.466 | 15.77 | -6.028
CN(C)CC1(O)CCCN(c2noc(-c3ccccc3)n2)CC1 (stereo unspecified) | -8.731 | 2.473 | 2.887
O=C(CCC(=O)Nc1nnc(C2CCCCC2)s1)NCC1CCCO1 (stereo unspecified) | -42.15 | -12.46 | 20.86
[H][C@@]12CN(Cc3ccccn3)C[C@]1([H])N(CCCc1ccc(F)cc1)C(=O)O2 | -22.3 | -3.295 | -5.774
CN(C)C1CCCN(C(=O)c2ccc3sc4c(c3c2)CCNC4=O)CC1 (stereo unspecified) | -1.177 | 18.98 | 12.33
Cc1noc(C)c1CCC(=O)N1CCOCC1CCc1cnccn1 (stereo unspecified) | - | 18.69 | -
CC(CNC(=O)c1cccc(-n2cccn2)c1)Cn1ccnc1 (stereo unspecified) | -34.03 | 27.33 | 7.659
Cc1ccc(N2CCC(C(=O)NC3CCc4nccn4C3)CC2)nc1 (stereo unspecified) | -54.06 | 0.7114 | 15.06
CCCn1ncc(-c2ccnc(NC3CC(C)(C)NC(C)(C)C3)n2)c1C | 25.37 | -6.711 | 50.73
CC(=O)N(Cc1noc(C2CC2)n1)C1CCN(CC(=O)NC2CC2)C1 (stereo unspecified) | -12.59 | -8.791 | 0.8391
CCc1ccccc1OCCCN(C)C(=O)C1CCCN1C(N)=O (stereo unspecified) | -10.63 | 10.68 | 14.52
CC1(C)CN(Cc2csc(CS(C)(=O)=O)n2)Cc2ccccc21 | 100.6 | -3.043 | 1.455
COc1ccc(-c2cc(C(=O)NCCn3ccnc3)n(C)n2)cc1 | - | 28.68 | 10.66
COC(=O)c1ccc(/C=C/c2ncc(C(=O)O)s2)cc1 | -10.54 | -216.2 | -1.253
CN(C)C(=O)c1cccc(CN2CCOC(Cn3cncn3)C2)c1 (stereo unspecified) | -37.57 | 18.12 | -14.14
O=C(NCc1cccc(F)c1F)c1cc(CN2CCCC(O)C2)on1 (stereo unspecified) | -31.33 | -1.321 | -2.403
COc1ccc(S(=O)(=O)NCCC(O)c2ccccc2)c(C)c1 (stereo unspecified) | 9.035 | 0.2668 & 11.49 | 5.148
C[C@@H]1CN(c2nc3c(cc2C(N)=O)CCC3)C[C@@]1(O)C1CCC1 | -31.38 | 6.061 | 6.586
NC(=O)c1cc(C2CCCN(CCOCC3CC3)C2)n[nH]1 (stereo unspecified) | 2.161 | 27.01 | 4.538
c1ccc(Cc2nnc(CN3CCCC3Cn3cccn3)o2)cc1 (stereo unspecified) | -4.789 | 14.32 | 11.53
Cc1cc(C(=O)NC2CCCCNC2=O)c(=O)[nH]c1C (stereo unspecified) | -29.57 | 19.39 | -1.628
NC(=O)CC1CCN(C(=O)c2cccn2Cc2cccs2)CC1 | - | 10.24 | -2.967
Cc1cnn(C2CN(CC(O)c3ccc(F)cc3)C2)c1 (stereo unspecified) | 7.728 | 11.9 | 0
Cc1cc(NC(=O)c2ccc(F)cc2F)n(C)n1 | -10.91 | 3.946 | 2.632
Cc1ccc(S(=O)(=O)Nc2c(C)nc(N3CCCC3)nc2C)cc1 | 4.671 | 22.54 & 28.75 | 3.089
O=C(O)c1cc(-c2ccoc2)cc(S(=O)(=O)NCc2ccccn2)c1 | - | -1.914 | -15.59
O=C(c1c[nH]nn1)N1CCN(C(c2ccccc2)C(F)(F)F)CC1 (stereo unspecified) | -16.38 | 11.9 | 17.63
CN(C)C(=O)C1CCC2(CCN(Cc3cnn(C)c3)CC2)C1.O=C(O)C(F)(F)F (stereo unspecified) | -13.56 | 26.74 | -1.596
Cc1ccc(F)c(S(=O)(=O)NCc2[nH]ncc2Br)c1 | 17.93 | -15.34 | -12.64
O=C(c1cc(-c2cccs2)cs1)N1CCOCC1 | 18.84 | 24.03 | -33.04
Cc1cc(C)n(CC2CCCN2C(=O)c2ccc3ccccc3n2)n1 (stereo unspecified) | 4.82 | 26.78 | -25.82
CN(CC1CC1)C(=O)CN(Cc1cccc(O)c1)C1CCC(O)CC1 (stereo unspecified) | -3.289 | 30.55 | -0.5848
Cc1nc(CN(C)C2CCN(CCCOc3ccc(F)cc3)C2)no1 (stereo unspecified) | - | 30.3 | 1.436
CC(C)C(C)NC(=O)c1cc(Br)c2c(c1)OCCO2 (stereo unspecified) | 14.29 | 26.95 | -0.2516
Cc1ccc(C(=O)NC2CCOc3ccccc32)cc1S(C)(=O)=O (stereo unspecified) | -9.052 | 7.599 | -3.633
O=C(O)C(F)(F)F.[H][C@@]12C[C@@H](C(=O)NC)N(C(C)C)[C@]1([H])CN(C(=O)c1ccco1)C2 | -12.88 | 4.093 | 6.631
CC(C)S(=O)(=O)CC(=O)N(Cc1ccsc1)c1ccccc1 | -4.986 | -4.927 | -0.4005
COc1ccc(CNC(=O)c2ccc(Cl)cc2F)cc1C(=O)O | 14.7 | -5.174 | 4.938
N#CC1CCCN(C(=O)Cn2ncc(N3CCCC3)cc2=O)C1 (stereo unspecified) | 0.7812 | -15.68 | -12.77
CCc1nc(C(=O)N2CCN(C(=O)CCc3ccccc3)CC2)c[nH]1 | -85.3 | 1.127 | 4.759
Cc1noc(C)c1CNC(=O)N1CCC(CO)CC1 | 30.11 | 25.43 | 3.826
COc1ccc(C(=O)N2CCCC(n3cc(C)cn3)C2)c(F)c1 (stereo unspecified) | -4.049 | 7.803 | 7.8
Cc1ccc(N2CCCC(N(C)c3ncnc4c3CCC4)C2)nn1 (stereo unspecified) | -19.18 | 3.89 | 9.702
COc1ccc(CCNCc2ccco2)cc1OC | -7.071 | 2.012 | 4.901
O=C(c1ccco1)N1CCC2(CC1)C(=O)NCCN2CC1CC1 | -45.48 | -1.202 | -1.945
CS(=O)(=O)N1CCN(C(=O)c2cnn3c2OCCC3)CC1 | -15.37 | 17.71 | -9.448
Cc1ccc(CN2CCCC23CCN(S(=O)(=O)c2ccccc2)C3)o1 (stereo unspecified) | - | 49.3 | 2.205
CCc1nc(CC)n(CC(=O)N(CC)CC)n1 | -26.41 | 3.957 | 0.6967
Cc1cccc(-n2cc(C(=O)N3CCCC(n4ccnc4)C3)nn2)c1 (stereo unspecified) | -115.3 | -11 | 1.831
Cc1c(C(N)=O)sc2nc(C(F)(F)F)ccc12 | -54.73 | -10.4 | -3.894
Cn1ccc(C(=O)NCc2ccccc2CN2CCCCC2)cc1=O | - | 14.59 | 4.852
CCN(CC)C(=O)c1ccn(COc2ccccc2)n1 | 13.06 | 25.56 | 1.195
O=C(C1CCCO1)N1CCC(n2cc(-c3ccsc3)nn2)CC1 (stereo unspecified) | 6.645 | 28.97 | 11.74
[H][C@@]12COC[C@]1(C(=O)NCCOC)CN(c1cc(OC)ncn1)C2 | -36.99 | -6.494 & -9.732 | -3.654

For reference, 5 entries once more:

{"smiles": "CC(=O)N1CCC(C(=O)NC2CCc3nccn3C2)CC1", "stereo": "stereo unspecified", "T. brucei": -29.04, "Leishmania in macrophages": 2.642, "Toxoplasma": 7.692}
{"smiles": "CN(C)C(=O)c1cccc(CN2CCOC(Cn3cncn3)C2)c1", "stereo": "stereo unspecified", "T. brucei": -37.57, "Leishmania in macrophages": 18.12, "Toxoplasma": -14.14}
{"smiles": "C[C@@H]1CN(c2nc3c(cc2C(N)=O)CCC3)C[C@@]1(O)C1CCC1", "T. brucei": -31.38, "Leishmania in macrophages": 6.061, "Toxoplasma": 6.586}
{"smiles": "[H][C@@]12COC[C@]1(C(=O)NCCOC)CN(c1cc(OC)ncn1)C2", "T. brucei": -36.99, "Leishmania in macrophages": "-6.494 & -9.732", "Toxoplasma": -3.654}
{"smiles": "Cc1ccc(S(=O)(=O)Nc2c(C)nc(N3CCCC3)nc2C)cc1", "T. brucei": 4.671, "Leishmania in macrophages": "22.54 & 28.75", "Toxoplasma": 3.089}

Measurements from “University of Dundee, Small-Polar-MMV Screening Library” (2021), ChEMBL document CHEMBL3988442.